PubChem BioAssay AID1259405, NCATS, 2018

Screen: 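Mouse-designed siRNAs used to find CHO productivity engineering targets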 (primary screen)
System: Chinese hamster CHO-K1 ovary cells with stable secreted eGFP expression
Reagent: single siRNA against mouse genes, 0.8 pmol siRNA per well (2 µl of 400 nM stock)
Duration: 3 days
Detection: 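Percent of the per-plate non-targeting control median for intracellular GFP per well by laser scanning cytometry and for cell viability by ATP luminescence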
Reading the numbers: GFP, % of control: higher = more GFP per well, higher productivity; viability (ATP), % of control: higher = more viable cells (more ATP)
Call rule: 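a knock-down is called active if GFP reaches 120% or more of non-targeting control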
The whole screen tested about 50,000 reagents; below is a random part of them. About 4,000 of them (8%) count as active. 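Mouse siRNA library applied to hamster cells; one well for each siRNA.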 Unmarked entries are inactive. The numbers tell different reagents against one gene apart.

| gene | reagent | GFP, % of control | viability (ATP), % of control |
| --- | --- | --- | --- |
| Ano1 | 1 | 34.2 | 28.8 |
| Ano1 | 2 | 72.4 | 94.1 |
| Ano1 | 3 | 93.8 | 82.9 |
| Mapk10 | 1 | 60.9 | 69.1 |
| Mapk10 | 2 | 34.1 | 40.7 |
| Mapk10 | 3 | 82.9 | 93.8 |
| Mapk10 | 4 | 63.3 | 70.5 |
| Mapk10 | 5 | 89.4 | 99.9 |
| Mapk10 | 6 | 183 (active) | 157 |
| Zfp286 | 1 | 116 | 123 |
| Zfp286 | 2 | 71.3 | 74.7 |
| Zfp286 | 3 | 77.4 | 78.7 |
| Glt28d2 | 1 | 87.3 | 86 |
| Glt28d2 | 2 | 129 (active) | 89.3 |
| Glt28d2 | 3 | 93.2 | 101 |
| Dyrk2 | 1 | 55.7 | 75.7 |
| Dyrk2 | 2 | 104 | 63.5 |
| Dyrk2 | 3 | 117 | 85.9 |
| Otc | 1 | 42.2 | 52.2 |
| Otc | 2 | 89.7 | 62.8 |
| Adprs | 1 | 82.7 | 68.4 |
| Adprs | 2 | 56.7 | 85.8 |
| Adprs | 3 | 57.7 | 75.2 |
| Arid1a | 1 | 87.5 | 117 |
| Arid1a | 2 | 22.4 | 57.8 |
| Arid1a | 3 | 57.9 | 71.2 |
| Ppp1r9a | 1 | 95.9 | 87.3 |
| Ppp1r9a | 2 | 161 (active) | 20.5 |
| Ppp1r9a | 3 | 71.3 | 88.5 |
| Rpa2 | 1 | 119 | 87.6 |
| Rpa2 | 2 | 101 | 98.4 |
| Chil4 | 1 | 86.7 | 97 |
| Chil4 | 2 | 96.2 | 74.3 |
| Chil4 | 3 | 101 | 94.6 |

A run of entries of the results above, as a working copy:
| gene | reagent | GFP, % of control | viability (ATP), % of control |
| --- | --- | --- | --- |
| Dyrk2 | 3 | 117 | 85.9 |
| Otc | 1 | 42.2 | 52.2 |
| Otc | 2 | 89.7 | 62.8 |
